{"source": "patent US12636322B2", "about": "“Bacterial strain with high cellulolytic activity” (INSTITUT NATIONAL SUPERIEUR DES SCIENCES AGRONOMIQUES DE …, priority 2021, dated 2026)", "system": "F. succinogenes HC4", "assay": "Phenotypic tests for antibiotic resistance", "format": "cell-based, Fibrobacter succinogenes", "details": "liquid filter paper semi-synthetic medium, anaerobic, 48 hours at 38° C.", "protocol": "Eight antibiotics were tested according to EFSA recommendations for Gram-negative bacteria (31). Before being added to the filter paper semi-synthetic medium, the antibiotics were sterilized by filtration (0.22 μm filters). 24-hours cultures of strain HC4 were inoculated into media containing each antibiotic. A positive control without antibiotics was inoculated from the same culture of strain HC4 and two cultures were prepared for each condition. After 48 hours of incubation at 38° C., the observation of filter paper degradation allowed estimating the bacterial growth. In case of no degradation, a sample of liquid was taken and frozen at −20° C. for further determination of succinate production."}
{"smiles": "O=C(O)c1cn(C2CC2)c2cc(N3CCNCC3)c(F)cc2c1=O", "note": "[Ciprofloxacin]", "values": [{"measurement": "Concentrations to inhibit growth", "result": 0.25, "unit": "mg/L"}]}
